For one molecule, binding results are on record in patent US20150202315A1.

The chains behind the UniProt entries cited, without tags or fusion partners. Residues count along the entry.
UniProt P06733, residues 2-434: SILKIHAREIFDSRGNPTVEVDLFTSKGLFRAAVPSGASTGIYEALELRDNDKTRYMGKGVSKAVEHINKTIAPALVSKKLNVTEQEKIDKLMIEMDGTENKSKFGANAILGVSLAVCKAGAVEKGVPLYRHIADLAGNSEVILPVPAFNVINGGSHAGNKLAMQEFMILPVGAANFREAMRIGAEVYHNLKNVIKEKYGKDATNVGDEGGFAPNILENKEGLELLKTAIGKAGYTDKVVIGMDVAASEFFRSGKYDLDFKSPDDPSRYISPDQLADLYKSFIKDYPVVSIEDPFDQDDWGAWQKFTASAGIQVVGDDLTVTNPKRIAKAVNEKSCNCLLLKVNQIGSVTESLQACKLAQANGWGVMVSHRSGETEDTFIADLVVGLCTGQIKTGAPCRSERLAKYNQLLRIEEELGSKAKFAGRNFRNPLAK

These are yes or no findings as the source states them, for the method shown. Some binding calls cover weakened binding; strength is not graded here.

For assay [1], the target named is alpha-enolase (ENO1) on the plasma membrane of HCT116 cells (human) (UniProt P06733). As to the kind of experiment: summary of the affinity cross-linking and LC/MS/MS identification.
The target is the same in assay [2]. Nature of the assay: affinity cross-linking (DTSSP) on intact HCT116 cells, streptavidin pull-down, SDS-PAGE, LC/MS/MS.

SSMDIVLRAPLMGGG (C-terminal biotin) [biotinylated pHCT74 peptide]: the binding entry in assay [1] and in assay [2] was “binds” throughout.
